This passage reports cell number change and AC50 results from PubChem BioAssay AID2685 (National Center for Advancing Translational Sciences (NCATS), 2010).

The structures appear in SMILES notation. The list shows a part of the results. These are further read-outs of the screen, such as a control signal, another cell line or another target. No call is given for them. Compounds called inactive in the main read-out are mostly missing here. The note in brackets gives the kind of curve behind each potency; many fits are weak.

The nature of the test: qHTS Assay for Lipid Storage Modulators in Drosophila S3 Cells.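 As to cell number change: cells counted by Cell Tracker Red CMTPX staining in the red channel.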 To be noted: BODIPY lipid droplet fluorescence, 18-24 h; for cell number change: measured here: cell count max response, cells fed with added oleic acid. Put shortly:
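Drosophila S3 cells loaded with oleic acid (400 uM, as added) and compounds at several concentrations; lipid droplets imaged by 488-nm laser-scanning cytometry, 500–530 nm intensity and object ratio to cell channel. Percent activity normalized to 20 uM Triacsin C.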

Setting [1] is: measured here: cell number channel AC50, cells fed with added oleic acid.
Where [2] appears, read: measured here: lipid fluorescence (Fed channel) AC50, cells fed with added oleic acid.

Turning to `CC(C)CC(=O)Nc1nnc(SCC(=O)NCc2ccco2)s1`, the cell number change came out at 9.79%.

Take `O=C(Nc1nc(-c2ccccn2)cs1)c1ccc(F)c(S(=O)(=O)N2CCOCC2)c1`: the cell number change worked out at 2.9%. Besides, the AC50 under setting [1] was 0.517 µM [rising, single point]. Under setting [2], the AC50 was 14.6 µM [falling, partial curve].

With `O=C1OC(N2C(=O)CC[C@H]2C(=O)NCC2CCCO2)c2ccccc21` (stereo not given in full), the cell number change was found to be 21.7%. Under setting [1], the AC50 was 0.082 µM [rising, full curve, poor fit]. Moreover, under setting [2], the AC50 is 29.1 µM [rising, single point].

In the case of `CN1C(=O)CC(N2CCN(Cc3ccc(Cl)cc3)CC2)C1=O` (stereo not given), the cell number change came out at 49.6%. In addition, under setting [1], the AC50 is 14.6 µM [rising, partial curve, poor fit]. Under setting [2], the half-maximal activity concentration (AC50) is 0.366 µM [rising, partial curve, poor fit].

As to `CC(=O)NCc1nnc2c3ccccc3c(-c3ccccc3)nn12`, the cell number change was 4.33%. In addition, under setting [2], the AC50 was 1.12 µM [rising, partial curve].

`CCOc1ccc(NC(=O)CN2CCN(CC(=O)c3ccc(OC)c(OC)c3)CC2)cc1`: the cell number change came out at 20.7%.

Regarding `O=C(CCCC(=O)N1CCN(c2cccc(Cl)c2)CC1)c1ccccc1`, the cell number change came to 23.6%. Moreover, the AC50 under setting [2] was 29.1 µM [falling, single point].

For `CCCCOc1ccc(Cn2c(=O)oc3ccccc32)cc1`, the AC50 under setting [2] was 6.51 µM [rising, single point].

For the compound `CCc1noc(C)c1C(=O)N(C)CC(=O)Nc1cccc(OC)c1`, the cell number change is -11.1%. The AC50 under setting [2] is 4.61 µM [rising, partial curve, poor fit].

Regarding `COc1ccc(CCC(=O)Nc2nc(-c3ccncc3)cs2)cc1`, the AC50 under setting [1] is 6.51 µM [rising, single point].

As to `CCCn1nc(C(=O)Nc2cc(C(=O)OC)ccc2C)c2ccccc2c1=O`, the cell number change turned out to be 6.86%.

As to `Cc1cc(=O)oc(C)c1C(=O)O`, the cell number change is -25.8%.

Consider `COc1ccc(-n2c(O)c(C=NC3CC3)c(=O)[nH]c2=O)cc1`, for which the cell number change worked out at 2.14%. Moreover, under setting [2], the AC50 was 6.51 µM [rising, single point].

As for `COc1ccc(CCC(=O)Nc2ncc(C)s2)cc1OC`, the cell number change was -11.1%. The AC50 under setting [2] was 0.58 µM [falling, single point].

As to `COc1ccc(CCNC(=O)Cn2c(=O)n(-c3ccc(C)c(F)c3)c(=O)c3sccc32)cc1OC`, the AC50 under setting [1] was 6.51 µM [rising, single point].

Consider `CC(C)(C)OC(=O)N1CCC(CNC(=O)c2cccs2)CC1`, for which the cell number change was -56%. In addition, the AC50 under setting [2] was 5.8 µM [falling, partial curve].

`Cc1cc(C)c2oc(=O)cc(CN3CCN(Cc4ccccc4)CC3)c2c1`: the cell number change is 47.2%. Further, under setting [1], the AC50 is 29.1 µM [rising, single point].

Regarding `COC(=O)c1ccc(CSc2nc3sc(C)c(C)c3c(=O)[nH]2)cc1`, the cell number change is -23.8%.

Take `CCOc1cc2[nH]c(=S)n(Cc3ccc(C(=O)O)cc3)c(=O)c2cc1OCC`: the cell number change is -12.6%. Besides, under setting [2], the AC50 is 29.1 µM [falling, single point].

Turning to `CCCCCn1c(=O)[nH]c2cc(C(=O)NCc3ccc4c(c3)OCO4)ccc2c1=O`, the cell number change turned out to be 18.4%. The AC50 under setting [2] was 5.17 µM [rising, full curve].

On to `Cc1cc(=O)oc2c3c(cc(OCC(=O)NCCCn4ccnc4)c12)OC(C)(C)CC3`, for which the cell number change was 16.9%. Also, the half-maximal activity concentration (AC50) under setting [2] is 3.26 µM [falling, full curve].

Turning to `Nc1ccc(SCC(=O)Nc2cccc([N+](=O)[O-])c2)cc1`, the cell number change worked out at 6.65%. Further, the AC50 under setting [1] is 6.51 µM [falling, partial curve, poor fit]. Further, the AC50 under setting [2] was 6.51 µM [falling, partial curve, poor fit].

In the case of `Cc1ccc(S(=O)(=O)NC(CC(=O)O)c2ccco2)cc1` (stereo not given), the cell number change worked out at 0.424%. Further, the AC50 under setting [2] is 1.46 µM [falling, partial curve].

Turning to `Cc1ccc(CN2CCN(/N=C/c3ccc(C)s3)CC2)c(C)c1`, the cell number change came to 18.3%. Besides, the AC50 under setting [1] is 0.00651 µM [falling, full curve, poor fit]. Besides, the AC50 under setting [2] was 29.1 µM [falling, single point].

For the compound `Nc1nnc(-c2ccccc2Cl)s1`, the cell number change was 48.6%. Also, the AC50 under setting [1] is 9.2 µM [rising, partial curve]. Further, under setting [2], the half-maximal activity concentration (AC50) is 29.1 µM [rising, partial curve].

On to `O/N=C(/CCc1ccccc1)c1ccc2c(c1)OCCO2`, for which the cell number change was -7.01%. Also, the AC50 under setting [2] is 0.164 µM [falling, full curve, poor fit].

Turning to `Cc1nc(Nc2cccc(C(F)(F)F)c2)nc2c1C(=O)CC(C)C2` (stereo not given), the cell number change came to 107%. In addition, under setting [1], the AC50 is 20.6 µM [rising, single point].

Regarding `CC(=O)Nc1ccc(-c2csc(NC=C3C(=O)OC(C)(C)OC3=O)n2)cc1`, the cell number change came out at 45.2%. Moreover, the AC50 under setting [1] is 14.6 µM [rising, partial curve, poor fit]. For the same compound, the half-maximal activity concentration (AC50) under setting [2] was 25.9 µM [rising, partial curve, poor fit].

For `CCOC(=O)Nc1ccc2c(c1)N(C(=O)N(C)C)c1ccccc1CC2`, the cell number change was 15.3%. Moreover, under setting [2], the AC50 was 3.26 µM [rising, single point].

On to `CCn1cc(S(=O)(=O)Nc2ccc(Cl)cc2F)cn1`, for which the cell number change was 18.4%. In addition, the AC50 under setting [2] was 0.146 µM [falling, full curve, poor fit].

Take `O=c1[nH]c2cc(C(F)(F)F)ccc2n1-c1cc(C(F)(F)F)ccc1O`: the cell number change is -47.2%. The half-maximal activity concentration (AC50) under setting [1] is 18.4 µM [falling, partial curve]. For the same compound, the AC50 under setting [2] is 18.4 µM [falling, partial curve].

For the compound `Cc1cccc(N2CCN(C(=O)c3cn(C)c(=O)c4c3c3ccccc3n4C)CC2)c1C`, the cell number change was -58.9%. Besides, the AC50 under setting [1] was 29.1 µM [falling, single point].

As to `COc1ccc(C(=O)NCc2nnc(SCC(=O)N3CCOCC3)o2)cc1`, the cell number change is -32.7%. In addition, the AC50 under setting [2] is 29.1 µM [falling, single point].

For the compound `CCC1SC2=NC(C)=C(C(=O)OCCOC)C(/C=C/c3ccccc3OC)N2C1=O` (stereo not given), the cell number change is -1.13%. In addition, the AC50 under setting [2] was 1.03 µM [falling, full curve, poor fit].

As for `COC(=O)c1sc2cc([N+](=O)[O-])cc(SCC(C)C)c2c1N`, the cell number change is -67.6%. Also, the AC50 under setting [1] is 11.6 µM [falling, partial curve]. The AC50 under setting [2] is 3.26 µM [falling, full curve].

In the case of `CC(C)(C)c1ccc(/C=N/OCC(=O)NCc2ccc(F)cc2)cc1`, the cell number change is -64.6%. The AC50 under setting [1] is 11.6 µM [falling, partial curve]. Further, the AC50 under setting [2] is 9.2 µM [falling, partial curve].

In the case of `C=CCNC(=O)Nc1ccc(F)cc1F`, the AC50 under setting [2] is 6.51 µM [falling, partial curve].
